In one data set the test system is SbcC + SbcD H84Q. As to the kind of experiment: fluorescence anisotropy. Conditions: 1 mM ATP, 5 mM Mg2+, 1 mM Mn2+; 25 mM Tris pH 7.5, 50 mM KCl, 5 mM MgCl2, 1 mM MnCl2, 1 mM DTT, 1 mM ATP where stated; 5 nM DNA, 2-1000 nM SbcCD, 20 min at …; recombinant protein; protein details: C-terminal His6; label: 5' 6-FAM; letters put together from the description. (Polarisation of emitted light reports the rotation of a fluorescent probe.)

The subject of a further data set is SbcC + SbcD H84S. Nature of the data set: fluorescence anisotropy. Particulars: no ATP, 5 mM Mg2+, 1 mM Mn2+; 25 mM Tris pH 7.5, 50 mM KCl, 5 mM MgCl2, 1 mM MnCl2, 1 mM DTT, 1 mM ATP where stated; 5 nM DNA, 2-1000 nM SbcCD, 20 min at 25 C; recombinant protein; protein details: C-terminal His6; label: 5' 6-FAM; letters put together from the description.

Construct, isoform or probe ends are uncertain for at least one entry. For part of these data: A negative result means that nothing was seen under these conditions. For part of these data: The comparison behind a weaker result is the experiment's own reference, which may not be listed here. For part of these data: At least one verdict rests on a figure or table, not on a statement of the authors.

Take “CGCTTTATCAGAAGCCAGACATTAACGCTTCTGGAGAAACTCAACGAGCT (double strand) [50 bp DNA]”: the binding result with SbcC + SbcD H84Q is listed as “binds”.

With “CGCTTTATCAGAAGCCAGACATTAACGCTTCTGGAGAAAC (double strand) [40 bp DNA]”, the binding result in the data set with SbcC + SbcD H84Q is recorded as “binds”.

In the case of “CGCTTTATCAGAAGCCAGACATTAACGCTT (double strand) [30 bp DNA]”, in the data set on SbcC + SbcD H84S, the binding result is recorded as “no binding”.

On to “CGCTTTATCAGAAGCCAGAC (double strand) [20 bp DNA]”, for which the binding result with SbcC + SbcD H84Q is on record as “binds more weakly”.

For the sequence “CGCTTTATCAGAAGCCAGACATTAACGCTTCTGGAGAAACTCAAC (double strand) [45 bp DNA]”, the binding result in the data set with SbcC + SbcD H84Q is “binds”.

With “CGCTTTATCAGAAGCCAGACATTAACGCTTCTGGA (double strand) [35 bp DNA]”, in the data set on SbcC + SbcD H84Q, the binding result is on record as “binds”.
